According to publication PMC3836723:
Results are given in words; binding and its absence hold for the method and conditions named. In cells and extracts the contact can be indirect. Some binding calls cover weakened binding; strength is not graded here.

By UniProt entry, the sequences of proteins in these tests, tags left out.
UniProt Q03195: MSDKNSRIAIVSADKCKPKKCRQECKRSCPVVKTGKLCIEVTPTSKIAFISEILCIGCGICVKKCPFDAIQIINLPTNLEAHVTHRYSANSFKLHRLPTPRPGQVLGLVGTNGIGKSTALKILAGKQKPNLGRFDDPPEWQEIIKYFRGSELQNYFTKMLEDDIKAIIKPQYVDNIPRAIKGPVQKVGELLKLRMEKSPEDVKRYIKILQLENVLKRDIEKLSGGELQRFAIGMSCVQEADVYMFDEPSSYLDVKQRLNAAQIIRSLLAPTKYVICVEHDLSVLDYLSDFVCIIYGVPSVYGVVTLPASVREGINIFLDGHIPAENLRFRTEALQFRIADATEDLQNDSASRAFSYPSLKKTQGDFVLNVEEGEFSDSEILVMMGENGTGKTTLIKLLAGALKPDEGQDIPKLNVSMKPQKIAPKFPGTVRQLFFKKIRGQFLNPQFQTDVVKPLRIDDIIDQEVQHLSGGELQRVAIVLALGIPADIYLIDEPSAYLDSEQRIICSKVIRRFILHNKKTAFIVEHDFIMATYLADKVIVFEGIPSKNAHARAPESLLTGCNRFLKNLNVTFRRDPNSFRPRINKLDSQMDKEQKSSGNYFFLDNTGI
UniProt P05453: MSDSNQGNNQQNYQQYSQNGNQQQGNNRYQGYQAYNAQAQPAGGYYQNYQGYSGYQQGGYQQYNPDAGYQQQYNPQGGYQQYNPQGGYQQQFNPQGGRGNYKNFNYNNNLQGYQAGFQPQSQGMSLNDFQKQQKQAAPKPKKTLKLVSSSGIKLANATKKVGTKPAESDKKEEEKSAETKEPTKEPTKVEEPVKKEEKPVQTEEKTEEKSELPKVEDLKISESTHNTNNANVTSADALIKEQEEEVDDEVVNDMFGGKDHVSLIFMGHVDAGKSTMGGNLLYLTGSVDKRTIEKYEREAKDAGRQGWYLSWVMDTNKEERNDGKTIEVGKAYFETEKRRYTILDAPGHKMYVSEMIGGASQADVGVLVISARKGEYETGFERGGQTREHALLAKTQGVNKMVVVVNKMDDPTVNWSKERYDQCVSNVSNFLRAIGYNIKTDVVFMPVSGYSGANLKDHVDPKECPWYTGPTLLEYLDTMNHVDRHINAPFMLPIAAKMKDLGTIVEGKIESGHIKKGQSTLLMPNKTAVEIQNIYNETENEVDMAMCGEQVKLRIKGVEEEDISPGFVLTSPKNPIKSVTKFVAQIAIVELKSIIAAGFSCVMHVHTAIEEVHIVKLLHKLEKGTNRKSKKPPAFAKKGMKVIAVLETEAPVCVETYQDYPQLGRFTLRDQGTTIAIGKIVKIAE
UniProt Q05775: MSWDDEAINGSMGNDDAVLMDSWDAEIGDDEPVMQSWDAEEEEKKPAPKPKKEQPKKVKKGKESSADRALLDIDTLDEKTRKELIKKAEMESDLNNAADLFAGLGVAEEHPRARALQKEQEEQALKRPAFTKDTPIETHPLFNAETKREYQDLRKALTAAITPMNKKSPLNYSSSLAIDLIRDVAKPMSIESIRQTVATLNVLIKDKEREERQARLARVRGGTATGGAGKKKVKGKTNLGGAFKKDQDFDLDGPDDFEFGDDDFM
UniProt P32911: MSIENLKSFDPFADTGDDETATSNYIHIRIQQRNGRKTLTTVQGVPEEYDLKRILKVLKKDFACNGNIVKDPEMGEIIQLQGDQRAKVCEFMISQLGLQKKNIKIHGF
UniProt P32905: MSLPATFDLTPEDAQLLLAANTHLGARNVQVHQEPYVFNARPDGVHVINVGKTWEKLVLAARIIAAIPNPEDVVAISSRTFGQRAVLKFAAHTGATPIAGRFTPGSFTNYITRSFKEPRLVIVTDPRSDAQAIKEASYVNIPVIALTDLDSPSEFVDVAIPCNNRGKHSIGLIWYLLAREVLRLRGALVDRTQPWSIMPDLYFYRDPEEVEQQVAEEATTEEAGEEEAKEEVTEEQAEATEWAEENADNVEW

Columns and labels:
[1] = biological target: Myc-tagged RLI1 (yeast) (UniProt Q03195); assay: co-IP; WCE of yeast YDH353 (chromosomal Myc-tagged RLI1), 500 µg total protein, 1 µl mouse anti-Myc-Tag IgG, with or without antibody; lysis in buffer A (30 mM HEPES pH 8.8, 20 mM KAc, 3 mM magnesium acetate, 1 mM DTT, 1% Nonidet P-40); Western analysis
[2] = biological target: TAP-tagged eRF3 (yeast) (UniProt P05453); assay: pull-down; TAP-tagged chromosomal alleles; cells treated with 1% HCHO before harvest; WCE (1 mg protein) in buffer B (50 mM Tris-HCl pH 7.6, 150 mM NaCl, 0.05% Tween 20) with or without 0.1 mg/ml RNase A; IgG Sepharose 6 Fast Flow beads, 2 h at 4°C; eluted by boiling in SDS buffer or by TEV …; untagged wt strain as control; Western analysis

binding [1] | binding [2] | Substance
binds | – | eIF3j/HCR1 (from UniProt Q05775 1-265)
– | no binding | eIF1 (from UniProt P32911 1-108)
no binding | no binding | RPS0A (from UniProt P32905 1-252)
